Data on 5 compounds can be found in article PMC7377239, “Cardiovascular Effects of Polychlorinated Biphenyls and Their Major Metabolites” (Environmental Health Perspectives, 2020).

The data set concerns iPSC-CMs, iPSC-ECs and HUVECs phenotypes. The data set is described as follows: ToxPi 2.0 integration of POD values and physicochemical descriptors. Details: species or system human. As to conditions: for huvec.mtl.18hr ToxPi / huvec.tlps.18hr ToxPi / huvec.tta.18hr ToxPi / huvec.ttl.18hr ToxPi / huvec.cyto.24hr ToxPi / huvec.mito.24hr ToxPi / huvec.mitoint.24hr ToxPi / huvec.nma.24hr ToxPi / huvec.tc.24hrs ToxPi: HUVECs; for huvec.mtl.18hr ToxPi / huvec.tlps.18hr ToxPi / huvec.tta.18hr ToxPi / huvec.ttl.18hr ToxPi / huvec.cyto.24hr ToxPi / huvec.mito.24hr ToxPi / huvec.mitoint.24hr ToxPi / huvec.nma.24hr ToxPi / huvec.tc.24hrs ToxPi / endo.mtl.18hr ToxPi / endo.tlps.18hr ToxPi / endo.tta.18hr ToxPi / endo.ttl.18hr ToxPi / endo.cyto.24hr ToxPi / endo.mito.24hr ToxPi / endo.mitoint.24hr ToxPi / endo.nma.24hr ToxPi / endo.tc.24hrs ToxPi: scaled from POD; for cm.amp.avg.24hrs ToxPi / cm.amp.avg.90min ToxPi / cm.amp.cv.24hrs ToxPi / cm.amp.cv.90min ToxPi / cm.bpm.24hrs ToxPi / cm.bpm.90min ToxPi / cm.cam.24hrs ToxPi / cm.cam.90min ToxPi / cm.decay.rise.24hrs ToxPi / cm.decay.rise.90min ToxPi / cm.mii.24hrs ToxPi / cm.mii.90min ToxPi / cm.mito.24hrs ToxPi / cm.mito.90min ToxPi / cm.spacing.cv.24hrs ToxPi / cm.spacing.cv.90min ToxPi / cm.tc.24hrs ToxPi / cm.tc.90min ToxPi: iPSC-CM; for endo.mtl.18hr ToxPi / endo.tlps.18hr ToxPi / endo.tta.18hr ToxPi / endo.ttl.18hr ToxPi: iPSC-EC tube formation; for endo.cyto.24hr ToxPi / endo.mito.24hr ToxPi / endo.mitoint.24hr ToxPi / endo.nma.24hr ToxPi / endo.tc.24hrs ToxPi: iPSC-EC; for ToxPi_Score_Bioactivity: Biological Activity ToxPi, POD values of iPSC-CM, iPSC-EC and HUVEC phenotypes integrated; for ToxPi_Score_ChemBiol: Chemical-Biological Integration ToxPi, in vitro data plus physicochemical descriptors. An excerpt: Phenotypic responses were quantitatively assessed using concentration–response modeling as detailed elsewhere ([Sirenko et al. 2017]). Briefly, phenotypic readouts were normalized to vehicle controls and fit to a four-parameter logistic model in R studio software (version 3.1.1; R Development Core Team). Following EPA guidance on dose–response modeling, a cutoff of one standard deviation across means of vehicle control (i.e., 0.5% vol/vol DMSO in cell culture media) wells was applied to determine the point-of-departure (POD) values ([U.S. EPA 2012]). In the absence of a concentration–response, the highest tested concentration (i.e., 100μM ) was assigned as “no observable adverse effect level.” The concentration–response assessment R script, as well as templates for vehicle and concentration–response data, are available as a supplement to Sirenko et al. ([2017]). The ability of physicochemical properties to predict differences in PODs were evaluated by multiregression and mixed-effects modeling using R.
POD values were then integrated using ToxPi 2.0 ([Marvel et al. 2018]) software. In ToxPi, each slice is representative of cell type– and time-point–specific phenotypes. The area of each slice is proportional to the relative value (e.g., bioactivity or physicochemical descriptor value) of the chemical within the data set. ToxPi scores were used to rank PCBs and their metabolites according to their overall bioactivity and to determine variability in total observable biological responses and chemical characteristics for each major metabolite class and chlorination status (mono-, hexa-chlorinated). Additional visualizations such as dumbbell and principal components analysis plots were generated in R Studio (version 1.1.456; R version 3.5.1; R Development Core Team) using the ggplot2 package.

Structures can show the parent of a compound that is named as a salt.

For the compound `O=S(=O)(O)Oc1cccc(-c2ccc(Cl)cc2)c1` [3'-yl PCB 3 sulfate], the “huvec.mtl.18hr ToxPi” value worked out at 0.42, the “huvec.tlps.18hr ToxPi” value is recorded as 0.00, the “huvec.tta.18hr ToxPi” value is reported as 0.00 and the “huvec.ttl.18hr ToxPi” value came to 0.00. In addition, the “huvec.cyto.24hr ToxPi” value is reported as 0.00, the “huvec.mito.24hr ToxPi” value came out at 0.00, the “huvec.mitoint.24hr ToxPi” value stood at 0.00 and the “huvec.nma.24hr ToxPi” value was 0.00. Also, the “huvec.tc.24hrs ToxPi” value turned out to be 0.00, the “cm.amp.avg.24hrs ToxPi” value amounted to 0.00, the “cm.amp.avg.90min ToxPi” value is 0.00 and the “cm.amp.cv.24hrs ToxPi” value is 0.00. The “cm.amp.cv.90min ToxPi” value was found to be 0.00, the “cm.bpm.24hrs ToxPi” value is 0.00, the “cm.bpm.90min ToxPi” value is 0.0742 and the “cm.cam.24hrs ToxPi” value was 0.00. For the same compound, the “cm.cam.90min ToxPi” value was determined as 0.00, the “cm.decay.rise.24hrs ToxPi” value came to 0.00, the “cm.decay.rise.90min ToxPi” value was found to be 0.00 and the “cm.mii.24hrs ToxPi” value was 0.00. The “cm.mii.90min ToxPi” value is 0.04, the “cm.mito.24hrs ToxPi” value was 0.00, the “cm.mito.90min ToxPi” value is 0.00 and the “cm.spacing.cv.24hrs ToxPi” value was found to be 0.00. Further, the “cm.spacing.cv.90min ToxPi” value is recorded as 0.00, the “cm.tc.24hrs ToxPi” value is reported as 0.00, the “cm.tc.90min ToxPi” value is listed as 0.00 and the “endo.mtl.18hr ToxPi” value came out at 0.54. Also, the “endo.tlps.18hr ToxPi” value is reported as 0.15, the “endo.tta.18hr ToxPi” value is reported as 0.20, the “endo.ttl.18hr ToxPi” value is listed as 0.22 and the “endo.cyto.24hr ToxPi” value was determined as 0.00. For the same compound, the “endo.mito.24hr ToxPi” value is 0.00, the “endo.mitoint.24hr ToxPi” value is on record as 0.00, the “endo.nma.24hr ToxPi” value was 0.00 and the “endo.tc.24hrs ToxPi” value is listed as 0.00.

As for `O=S(=O)(O)Oc1cc(-c2ccccc2)ccc1Cl` [3-PCB 3 sulfate], the ToxPi_Score_Bioactivity is reported as 0.06149 and the ToxPi_Score_ChemBiol was found to be 0.184.

As to `O=S(=O)(O)Oc1cc(-c2ccccc2)ccc1Cl` [3-yl PCB 3 sulfate], the “huvec.mtl.18hr ToxPi” value amounted to 0.48, the “huvec.tlps.18hr ToxPi” value worked out at 0.08, the “huvec.tta.18hr ToxPi” value is 0.00 and the “huvec.ttl.18hr ToxPi” value is given as 0.10. The “huvec.cyto.24hr ToxPi” value turned out to be 0.00, the “huvec.mito.24hr ToxPi” value stood at 0.00, the “huvec.mitoint.24hr ToxPi” value is 0.00 and the “huvec.nma.24hr ToxPi” value was determined as 0.00. The “huvec.tc.24hrs ToxPi” value was determined as 0.00, the “cm.amp.avg.24hrs ToxPi” value is reported as 0.00, the “cm.amp.avg.90min ToxPi” value came out at 0.10 and the “cm.amp.cv.24hrs ToxPi” value is 0.00. The “cm.amp.cv.90min ToxPi” value was found to be 0.00, the “cm.bpm.24hrs ToxPi” value worked out at 0.00, the “cm.bpm.90min ToxPi” value is 0.00 and the “cm.cam.24hrs ToxPi” value is on record as 0.00. For the same compound, the “cm.cam.90min ToxPi” value was found to be 0.00, the “cm.decay.rise.24hrs ToxPi” value is given as 0.00, the “cm.decay.rise.90min ToxPi” value is on record as 0.00 and the “cm.mii.24hrs ToxPi” value amounted to 0.39. In addition, the “cm.mii.90min ToxPi” value is reported as 0.00, the “cm.mito.24hrs ToxPi” value is recorded as 0.00, the “cm.mito.90min ToxPi” value was 0.00 and the “cm.spacing.cv.24hrs ToxPi” value was 0.00. Besides, the “cm.spacing.cv.90min ToxPi” value amounted to 0.00, the “cm.tc.24hrs ToxPi” value is reported as 0.00, the “cm.tc.90min ToxPi” value turned out to be 0.00 and the “endo.mtl.18hr ToxPi” value stood at 0.00. Besides, the “endo.tlps.18hr ToxPi” value is on record as 0.43, the “endo.tta.18hr ToxPi” value is 0.00, the “endo.ttl.18hr ToxPi” value came out at 0.00 and the “endo.cyto.24hr ToxPi” value amounted to 0.00. The “endo.mito.24hr ToxPi” value is 0.00, the “endo.mitoint.24hr ToxPi” value is listed as 0.00, the “endo.nma.24hr ToxPi” value worked out at 0.00 and the “endo.tc.24hrs ToxPi” value worked out at 0.00.

On to `Oc1ccc(-c2ccc(Cl)cc2)cc1` [4'-OH PCB3], for which the “huvec.mtl.18hr ToxPi” value amounted to 0.99, the “huvec.tlps.18hr ToxPi” value came to 1.00, the “huvec.tta.18hr ToxPi” value was 0.58 and the “huvec.ttl.18hr ToxPi” value is on record as 0.45. Also, the “huvec.cyto.24hr ToxPi” value is given as 0.28, the “huvec.mito.24hr ToxPi” value worked out at 0.39, the “huvec.mitoint.24hr ToxPi” value amounted to 0.43 and the “huvec.nma.24hr ToxPi” value was 0.34. Further, the “huvec.tc.24hrs ToxPi” value was determined as 0.28, the “cm.amp.avg.24hrs ToxPi” value came out at 1.00, the “cm.amp.avg.90min ToxPi” value amounted to 0.59 and the “cm.amp.cv.24hrs ToxPi” value came out at 0.84. The “cm.amp.cv.90min ToxPi” value worked out at 0.33, the “cm.bpm.24hrs ToxPi” value stood at 0.33, the “cm.bpm.90min ToxPi” value amounted to 0.82 and the “cm.cam.24hrs ToxPi” value came to 0.15. The “cm.cam.90min ToxPi” value came to 0.86, the “cm.decay.rise.24hrs ToxPi” value is 0.24, the “cm.decay.rise.90min ToxPi” value is recorded as 0.57 and the “cm.mii.24hrs ToxPi” value was determined as 0.50. In addition, the “cm.mii.90min ToxPi” value is given as 0.68, the “cm.mito.24hrs ToxPi” value stood at 0.21, the “cm.mito.90min ToxPi” value turned out to be 0.88 and the “cm.spacing.cv.24hrs ToxPi” value came out at 0.19. The “cm.spacing.cv.90min ToxPi” value was 0.08, the “cm.tc.24hrs ToxPi” value amounted to 0.22, the “cm.tc.90min ToxPi” value was determined as 0.90 and the “endo.mtl.18hr ToxPi” value worked out at 0.46. Also, the “endo.tlps.18hr ToxPi” value came out at 1.00, the “endo.tta.18hr ToxPi” value worked out at 0.41, the “endo.ttl.18hr ToxPi” value turned out to be 0.41 and the “endo.cyto.24hr ToxPi” value is given as 0.16. The “endo.mito.24hr ToxPi” value is 0.16, the “endo.mitoint.24hr ToxPi” value is recorded as 0.00, the “endo.nma.24hr ToxPi” value was determined as 0.00 and the “endo.tc.24hrs ToxPi” value was 0.12.

Take `Oc1ccc(-c2ccc(Cl)cc2)cc1` [4'-OH-PCB 3]: the ToxPi_Score_Bioactivity is 0.6158 and the ToxPi_Score_ChemBiol amounted to 0.4936.
